Test results from patent US9733262B2, “Method for measuring blood coagulation” (SEKISUI MEDICAL CO., LTD., priority 2009, dated 2017).
Where a name gives a salt, the structure may show the parent alone.

System: commercially available normal plasma (Coagtrol N)
Assay: Fibrinogen measurement by thrombin time method: coagulation time and change in scattered light intensity of normal plasma after adding thrombin reagent
Type: biochemical
Conditions: for ΔH (maximum of a change in scattered light intensity): Table 1, agent in specimen diluent (HEPES buffer pH 7.5), amount adjusted to similar coagulation time: NaCl 145 mM, NaBr 110, KBr 105, KCl 135, LiCl 135, guanidine HCl 90, guanidine phosphate 30, guanidine sulfamate 55, aminoguanidine HCl 90, arginine HCl 55, arginine methyl ester 17 mM, single measurement for conventional methods (2)-(5), ten times for the others; for Change in light intensity ΔH: Table 2, specimen diluent HEPES buffer pH 7.5, NaCl 150 mM (A), NaCl 150 mM + PEG 20000 0.1% (B), aminoguanidine hydrochloride 90 mM, mean of three times measurement
Protocol: When a fibrinogen concentration in a plasma specimen is measured by a thrombin time method, in general, thrombin is added to plasma to measure a coagulation time, and the concentration is determined from a standard curve prepared using standard solutions having known fibrinogen concentrations. In the procedure, 90 μL of a specimen diluent are added to and mixed with 10 μL of specimen plasma, subsequently 50 μL of a thrombin-containing reagent are added as a blood coagulation activator-containing reagent, and a coagulation time is measured.
In this example, commercially available normal plasma (Coagtrol N, manufactured by Sysmex Corporation) as the plasma specimen, a Coagpia Fbg thrombin reagent (manufactured by Sekisui Medical Co., Ltd.) as the thrombin-containing reagent, and a full-automated blood coagulation time analyzer Coagrex 800 (manufactured by Sysmex Corporation) as a coagulation time measurement apparatus were used. This apparatus employs a scattered light detection method, and change data of scattered light intensity with time can also be obtained along with the coagulation time.
When an HEPES buffer (pH 7.5) was used as the specimen diluent, the commercially available normal plasma coagulated in several seconds (4.6 seconds).
Commercially available normal plasma was measured in the same manner as in Example 1 using the specimen diluent (HEPES buffer, pH 7.5) in which the amount of the blood coagulation time prolonging agent added was adjusted so as to obtain the similar coagulation time. The comparative results of the maximum of a change ΔH in scattered light intensity and of the simultaneous reproducibility of the measurements between in the conventional method and in the present invention were shown in Table 1.
A specimen diluent containing sodium chloride as the blood coagulation time prolonging agent was defined as a conventional method A and a specimen diluent further containing polyethylene glycol (molecular weight: 20000) (hereinafter, referred to as PEG 20000) as an enhancer of a change in light intensity in the conventional method A was defined as a conventional method B, and the specimen diluents were compared with a specimen diluent employing aminoguanidine hydrochloride (present invention) which served as both of the blood coagulation time prolonging agent and the enhancer of a change in light intensity. It should be noted that an HEPES buffer (pH 7.5) was used as a buffer in all of the cases. Further, the concentration of PEG 20000 to be added in the conventional method B was set to 0.1%, because a large amount of PEG 20000 could increase the viscosity of diluent and reduce the accuracy of sampling. The coagulation time of commercially available normal plasma was measured in the same manner as in Example 1 using each specimen diluent. The change of the scattered light intensity in the conventional method B with the addition of PEG 20000 became larger than in the conventional method A without the addition.

Compound	ΔH (maximum of a change in scattered light intensity)	Change in light intensity ΔH
N=C(N)NN [Aminoguanidine hydrochloride]	3,480	3,444
Cl.N=C(N)NCCC[C@H](N)C(=O)O [Arginine hydrochloride]	3,529	
COC(=O)[C@@H](N)CCCNC(=N)N [Arginine methyl ester]	6,130	
N=C(N)N [Guanidine hydrochloride]	4,575	
N=C(N)N.O=P(O)(O)O [Guanidine phosphate]	4,217	
N=C(N)N.NS(=O)(=O)O [Guanidine sulfamate]	5,167	
[Cl-].[Li+] [Lithium chloride]	2,305	
[Br-].[K+] [Potassium bromide]	2,127	
[Cl-].[K+] [Potassium chloride]	2,170	
[Br-].[Na+] [Sodium bromide]	2,174	
[Cl-].[Na+] [Sodium chloride]	2,348	2,194
